Laboratory results taken from PubChem BioAssay AID2549 (National Center for Advancing Translational Sciences (NCATS), 2010).
Screen size: about 240,000 compounds; about 1,300 (0.54%) were called active. Inconclusive results, whose numbers are uncertain, are shown with a selection of clear calls. Calls come from the whole dose curve; as a rule, active = well fitted inhibition curve with a large enough effect; inconclusive = small, poorly fitted or top-dose-only effect; inactive = flat fitted curve, though single readings scatter. Potencies of inconclusive entries are doubtful fits and often do not repeat.

Chains of the proteins cited; added tags and fusions are not shown. Lines headed by an entry give the natural chain unless they say otherwise; changes in a name come on top.
UniProt P46063: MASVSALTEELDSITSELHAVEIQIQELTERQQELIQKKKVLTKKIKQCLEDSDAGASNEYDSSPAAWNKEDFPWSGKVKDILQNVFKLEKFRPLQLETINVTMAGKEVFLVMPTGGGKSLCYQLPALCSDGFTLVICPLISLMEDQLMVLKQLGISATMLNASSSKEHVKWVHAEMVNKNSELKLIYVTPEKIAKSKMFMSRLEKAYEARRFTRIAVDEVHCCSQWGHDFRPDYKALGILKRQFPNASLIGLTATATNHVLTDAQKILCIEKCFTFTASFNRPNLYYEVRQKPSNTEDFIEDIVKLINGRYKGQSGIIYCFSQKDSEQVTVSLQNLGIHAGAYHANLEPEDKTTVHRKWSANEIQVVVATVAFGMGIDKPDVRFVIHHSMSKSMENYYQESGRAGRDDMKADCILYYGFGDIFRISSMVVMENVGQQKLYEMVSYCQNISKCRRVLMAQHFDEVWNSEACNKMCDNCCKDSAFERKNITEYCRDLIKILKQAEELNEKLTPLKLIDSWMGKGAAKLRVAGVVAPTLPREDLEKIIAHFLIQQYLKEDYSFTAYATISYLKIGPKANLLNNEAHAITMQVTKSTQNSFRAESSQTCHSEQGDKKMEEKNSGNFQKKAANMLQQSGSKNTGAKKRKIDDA

Each molecule was assayed against ATP-dependent DNA helicase Q1 (Homo sapiens) (UniProt P46063) (assay: qHTS Assay for Inhibitors of RecQ-Like Dna Helicase 1 (RECQ1)). Details: RECQ1 DNA unwinding, red fluorescence kinetic read; activity, negative = inhibition: at 57.3 µM (top of the series); series mostly up to 57.3 µM.
Method in brief: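 RECQ1T1 50 nM; forked duplex (20 bp + 30-nt ss tails) 200 nM, ATP 2 mM final; pH 8.0, 2 mM MgCl2, 2.5 ug/ml poly(dI-dC); 15 min compound preincubation; discontinuous kinetic read over 2 h at RT.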
Note: nearly all actives have a fitted effect of over 30% in size.
Potency is the fitted concentration of half-maximal effect.
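Throughout, for activity, negative = inhibition: plate controls were vehicle for no effect and no enzyme for full effect.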

Compound | Potency | activity, negative = inhibition | outcome
COc1cccc(N=Cc2c[nH][nH]c2=O)c1 | inconclusive: 7.08 µM [inhibitor, single point] | – | –
Cc1ccc(-n2cccc2/C=C2\C(=N)N3N=C(c4ccco4)SC3=NC2=O)cc1 | inconclusive: 28.2 µM [inhibitor, single point] | – | –
Cc1[nH]c(/C=C2\C(=O)Nc3ccc(S(=O)(=O)N(C)c4cccc(Cl)c4)cc32)c(C)c1C(=O)N1CCN(C)CC1 | inconclusive: 28.2 µM [inhibitor, single point] | – | –
COc1ccc(Cl)cc1C(=O)Nc1cccc(-c2ccc3nncn3n2)c1 | inconclusive: 31.6 µM [inhibitor, single point] | – | –
CC(=O)n1cc(-c2ccncc2)c2ccccc21 | – | inactive: -1.42% | –
COc1cccc(Nc2nc(N)c([N+](=O)[O-])c(NCc3ccccc3)n2)c1 | inconclusive: 35.5 µM [inhibitor, single point] | – | –
CCOc1cc(/C=C2\C(=O)N(Cc3ccco3)C(C)=C2C(=O)OC)ccc1O | inconclusive: 25.1 µM [inhibitor, partial curve, poor fit] | – | –
N#Cc1cccc(-c2ccc3ncnc(NCc4ccccc4)c3c2)c1 | inconclusive: 28.2 µM [inhibitor, single point] | – | –
NNC(=O)Cc1cn(-c2ncc(C(F)(F)F)cc2Cl)c2ccccc12 | inconclusive: 39.8 µM [inhibitor, partial curve] | – | –
O=C(CSc1nc(O)cc(=O)[nH]1)Nc1ccc2c(c1)CCC2 | – | inactive: -12.9% | –
O=C(c1cccc(F)c1)N1CCC[C@@]2(CCN(Cc3ccccc3)C2)C1 | – | inactive: -1.22% | –
COc1ccc(C(=O)NC(CO)c2nnc(SCc3ccc(Cl)c(Cl)c3)n2C)cc1 (configuration not stated) | inconclusive: 0.447 µM [inhibitor, partial curve, poor fit] | – | –
O=c1cc(CN2CCN(S(=O)(=O)/C=C/c3ccccc3)CC2)c2ccc(O)cc2o1 | inconclusive: 12.6 µM [inhibitor, partial curve] | – | –
C(=C\c1ccc2ccccc2n1)/c1ccccc1 | – | inactive: -20.6% | –
O=C(Nc1ccccc1)C(Cc1cccs1)c1nn[nH]n1 (configuration not stated) | inconclusive: 0.355 µM [inhibitor, partial curve, poor fit] | – | –
COc1ccccc1Nc1n[nH]c(=S)s1 | inconclusive: 8.91 µM [inhibitor, partial curve] | – | –
Cn1cccc1CC(=O)N/N=C\c1cccs1 | inconclusive: 22.4 µM [inhibitor, partial curve] | – | –
O=C(c1cccc(F)c1)N1CCC[C@@]2(CCN(C(c3ccccc3)c3ccccc3)C2)C1 | – | inactive: -7.03% | –
CCCCc1ccc(NS(=O)(=O)c2cccs2)cc1 | inconclusive: 39.8 µM [inhibitor, single point] | – | –
COc1cccc(OCc2nc(-c3ccc(Br)o3)no2)c1 | inconclusive: 5.01 µM [inhibitor, full curve] | – | –
CCC(=O)OCCNc1cc(Sc2nc3ccccc3s2)c2nonc2c1[N+](=O)[O-] | – | inactive: -12.5% | –
O=C(COc1ccccc1[N+](=O)[O-])N/N=C/c1ccc(OC(=O)c2ccco2)cc1 | – | inactive: -7.38% | –
Cc1sc(-n2cccc2)c(C(=O)O)c1C | inconclusive: 15.8 µM [inhibitor, single point] | – | –
O=C(Cl)COCc1ccccc1 | – | inactive: 16.6% | –

Retrieved by compound from the list above (3):
Compound | Potency | activity, negative = inhibition | outcome
O=C(c1cccc(F)c1)N1CCC[C@@]2(CCN(C(c3ccccc3)c3ccccc3)C2)C1 | – | inactive: -7.03% | –
N#Cc1cccc(-c2ccc3ncnc(NCc4ccccc4)c3c2)c1 | inconclusive: 28.2 µM [inhibitor, single point] | – | –
COc1ccc(Cl)cc1C(=O)Nc1cccc(-c2ccc3nncn3n2)c1 | inconclusive: 31.6 µM [inhibitor, single point] | – | –

The listing continues:

Compound | Potency | activity, negative = inhibition | outcome
COc1nc(N2CCCCCC2)nc(N2CCCCCC2)n1 | inconclusive: 1 µM [inhibitor, full curve] | – | –
N/C(=N\OC(=O)c1ccc(OCC(F)(F)F)nc1)c1ccc(Cl)cc1 | – | – | inactive
C=C(CO)C1Cc2cc(C(C)=O)ccc2O1 (configuration not stated) | inconclusive: 28.2 µM [inhibitor, single point] | – | –
C=CC[C@@H]1C=C[C@H](O/N=C/c2ccc(C(=O)N3[C@H](c4ccc(C)cc4)[C@@H](C)CC[C@H]3C(=O)OC)cc2)[C@@H](CO)O1 | inconclusive: 31.6 µM [inhibitor, single point] | – | –
CC(=O)C(Sc1ccc2nnc(-c3ccc(C)cc3)n2n1)C(C)=O | inconclusive: 35.5 µM [inhibitor, single point] | – | –
Cc1nn(Cc2c(Cl)cccc2Cl)c(C)c1C(=O)NCc1ccc(C)n1C | inconclusive: 35.5 µM [inhibitor, single point] | – | –
CCc1ccc(N2C(=O)CN(Cc3sccc3C)C2=S)cc1 | active: 1.58 µM | – | –
Cc1ccc(NC(=O)CSCC#N)cc1Cl | active: 28.2 µM | – | –
COc1ccc(-n2c(Cc3cccn3C)nnc2SCC(=O)Nc2ccccc2F)cc1 | inconclusive: 35.5 µM [inhibitor, single point] | – | –
CCOC(=O)/C(N=Nc1ccc(C(=O)O)cc1[N+](=O)[O-])=C(\C)O | – | inactive: 4.38% | –
COc1ccc(S(=O)(=O)Nc2ccccc2OC)cc1NC(=O)CC1CC2CCC1C2 (configuration not stated) | inconclusive: 0.0251 µM [inhibitor, full curve, poor fit] | – | –
CC[n+]1ccc(/C=C/c2ccc(N(C)C)cc2)c2ccccc21 | active: 35.5 µM | – | –
C[C@H](NC(=O)Cc1cc(F)cc(F)c1)C(=O)N[C@@H](C(=O)OC(C)(C)C)c1ccccc1 | – | inactive: -11.4% | –
Cc1ccc(CSC2=Nc3sccc3C3=NC(=O)CN23)cc1 | active: 31.6 µM | – | –
CN(C)c1ccc(-c2nc(NCc3cccnc3)c3ccccc3n2)cc1 | inconclusive: 3.16 µM [inhibitor, partial curve] | – | –
O=C(Nn1c(C2CCCCC2)nc2ccccc2c1=O)c1ccc(Cl)c([N+](=O)[O-])c1 | – | inactive: -0.112% | –
O=C1OC2(c3ccc(O)cc3Oc3cc(O)ccc32)c2ccccc21 | active: 31.6 µM | – | –
Cc1c(C(=O)Nc2ccc(F)cc2)cn2c(nc3ccccc32)c1C#N | – | inactive: -8.06% | –
c1cc(C(c2nnnn2C2CCCC2)N2CCOCC2)ccn1 (configuration not stated) | inconclusive: 39.8 µM [inhibitor, single point] | – | –
CCCN1C(=O)/C(=C\C=C2\N(CC)c3ccccc3C2(C)C)SC1=S | – | – | inactive
COc1ccc(CCN2CC(C(=O)NC3CCCCC3)CC2=O)cc1OC (configuration not stated) | active: 39.8 µM | – | –
Cc1c2c(c(O)c3c(O)cccc13)C(=O)O[C@H]2C1C(N(C)C)C(O)=C(C(N)=O)C(=O)[C@H]1O (some centres not stated) | active: 3.16 µM | – | –
Cc1ccccc1CN(CC(=O)Nc1cccc([N+](=O)[O-])c1)S(=O)(=O)c1ccc(Cl)cc1 | inconclusive: 35.5 µM [inhibitor, single point] | – | –
